The list shows a part of the results. Many values rest on one well or one pass, so single values are uncertain.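 Imaging used 1,536-well plates; nuclei positive for cleaved PARP by antibody were divided by total DNA-stained nuclei to yield the apoptosis fraction. Doses for screening kept most cells viable, and cell lines differ markedly in resting and induced cleaved-PARP levels.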
Tests used:
Assay in all cases: cleaved PARP positive nuclei fraction relative to DMSO control; melanoma cells; higher = more apoptosis
Conditions in all cases: library dose: low library concentration; 72 h
501Mel = system: 501Mel
A101D = system: A101D
A2058 = system: A2058
C32 = system: C32
CBRC008 = system: CBRC008 (line from a melanoma biopsy)
CBRC014 = system: CBRC014 (line from a melanoma biopsy)
CBRC016 = system: CBRC016 (line from a melanoma biopsy)
CBRC017 = system: CBRC017 (line from a melanoma biopsy)
COLO792 = system: COLO792
COLO800 = system: COLO800
COLO829 = system: COLO829
G361 = system: G361
IPC-298 = system: IPC-298
IST-MEL1 = system: IST-MEL1
LB2518-MEL = system: LB2518-MEL
LOXIMVI = system: LOXIMVI

Compound | cleaved PARP positive nuclei fraction (501Mel) | cleaved PARP positive nuclei fraction (A101D) | cleaved PARP positive nuclei fraction (A2058) | cleaved PARP positive nuclei fraction (C32) | cleaved PARP positive nuclei fraction (CBRC008) | cleaved PARP positive nuclei fraction (CBRC014) | cleaved PARP positive nuclei fraction (CBRC016) | cleaved PARP positive nuclei fraction (CBRC017) | cleaved PARP positive nuclei fraction (COLO792) | cleaved PARP positive nuclei fraction (COLO800) | cleaved PARP positive nuclei fraction (COLO829) | cleaved PARP positive nuclei fraction (G361) | cleaved PARP positive nuclei fraction (IPC-298) | cleaved PARP positive nuclei fraction (IST-MEL1) | cleaved PARP positive nuclei fraction (LB2518-MEL) | cleaved PARP positive nuclei fraction (LOXIMVI)
C[C@@H](N)c1ccc(C(=O)Nc2ccnc3[nH]ccc23)cc1 + CCCCCCCCCCCC1=C(O)C(=O)C=C(O)C1=O [Embelin] (first compound 0.4 µM, partner dose 1.2 µM) | 113% | 87.9% | 94% | 50.5% | 81.9% | 106% | 100% | 91% | 140% | 42.5% | 159% | 120% | 322% | 105% | 143% | 129%
CCCCCCCCc1ccc(CCC(N)(CO)CO)cc1 [fingolimod] + N#Cc1c(O)c2c(-c3ccc(-c4ccccc4O)cc3)csc2[nH]c1=O [A769662] (first compound 2 µM, partner dose 2 µM) | 185% | 54.9% | 98% | 178% | 58.7% | 210% | 16.4% | 219% | 62% | 60.1% | 135% | 120% | 48.3% | 90.2% | 73.7% | 146%
C[C@@H](N)c1ccc(C(=O)Nc2ccnc3[nH]ccc23)cc1 + O=c1cc(-c2cccc3c2Sc2ccccc2S3)oc(N2CCOCC2)c1 [KU55933] (first compound 0.4 µM, partner dose 1 µM) | 123% | 27.7% | 180% | 209% | 68.2% | 108% | 63.7% | 139% | 145% | 37.8% | 52.1% | 207% | 147% | 136% | 142% | 105%
NC(=O)c1ccc(N(C(N)=O)c2c(F)cccc2F)nc1-c1ccc(F)cc1F + Oc1cc(-c2nc(-c3ccccc3)[nH]c2-c2ccncc2)ccc1Cl [L779450] (first compound 0.4 µM, partner dose 0.2 µM) | 117% | 27.4% | 79% | 180% | 81.3% | 95.3% | 41.2% | 90.6% | 107% | 140% | 40.8% | 146% | 73.1% | 99.8% | 141% | 114%
NC(=O)c1ccc(N(C(N)=O)c2c(F)cccc2F)nc1-c1ccc(F)cc1F + CCN(CC)CCCCNc1ncc2cc(-c3cc(OC)cc(OC)c3)c(NC(=O)NC(C)(C)C)nc2n1 [PD173074] (first compound 0.4 µM, partner dose 0.1 µM) | 54.3% | 11.4% | 29.2% | 115% | 80.9% | 82.3% | 11.5% | 162% | 131% | 75.8% | 80.2% | 80% | 82.9% | 77% | 167% | 160%
C[C@]1(O)C[C@@H](c2nc(-c3ccc4ccc(-c5ccccc5)nc4c3)c3c(N)nccn32)C1 + c1cc(-c2cnn3cc(-c4ccc(OCCN5CCCCC5)cc4)cnc23)ccn1 [Dorsomorphin] (first compound 0.4 µM, partner dose 0.4 µM) | 43.2% | 18.7% | 203% | 27.6% | 39.4% | 104% | 46.9% | 102% | 57.2% | 33% | 61.1% | 74.2% | 147% | 122% | 403% | 287%
C[C@]1(O)C[C@@H](c2nc(-c3ccc4ccc(-c5ccccc5)nc4c3)c3c(N)nccn32)C1 + Cc1cc([N+](=O)[O-])ccc1NS(=O)(=O)c1cc(Cl)ccc1Cl [FH535] (first compound 0.4 µM, partner dose 1 µM) | 83% | 43.2% | 234% | 185% | 328% | 193% | 1900% | 430% | 88.2% | 86.6% | 46.5% | 123% | 105% | 134% | 88.5% | 58.1%
CN(c1ncccc1CNc1nc(Nc2ccc3c(c2)CC(=O)N3)ncc1C(F)(F)F)S(C)(=O)=O + N#Cc1c(O)c2c(-c3ccc(-c4ccccc4O)cc3)csc2[nH]c1=O [A769662] (first compound 0.08 µM, partner dose 2 µM) | 69.8% | 62.6% | 109% | 186% | 89.3% | 95.2% | 51.2% | 112% | 21% | 64.8% | 186% | 93.4% | 87.8% | 133% | 68% | 162%
CC(=O)O[C@@]12CO[C@@H]1C[C@H](O)[C@@]1(C)C(=O)[C@H](O)C3=C(C)[C@@H](OC(=O)[C@H](O)[C@@H](NC(=O)OC(C)(C)C)c4ccccc4)C[C@@](O)([C@@H](OC(=O)c4ccccc4)[C@H]21)C3(C)C [Docetaxel] + O=S(=O)(c1ccccc1)N(CC(F)(F)F)c1ccc(C(O)(C(F)(F)F)C(F)(F)F)cc1 [T0901317] (first compound 0.0001 µM, partner dose 1.4 µM) | 109% | 48.2% | 2460% | 386% | 364% | 229% | 189% | 142% | 294% | 115% | 346% | 569% | 143% | 53.8% | 208% | 311%
COc1ccc(C2=N[C@@H](c3ccc(Cl)cc3)[C@@H](c3ccc(Cl)cc3)N2C(=O)N2CCNC(=O)C2)c(OC(C)C)c1 [Nutlin-3] + CCN(CC)CCCCNc1ncc2cc(-c3cc(OC)cc(OC)c3)c(NC(=O)NC(C)(C)C)nc2n1 [PD173074] (first compound 0.1 µM, partner dose 0.1 µM) | 63% | 66.9% | 113% | 48.8% | 38.7% | 103% | 66.2% | 155% | 126% | 125% | 25.5% | 78.1% | 75.6% | 20.9% | 86.4% | 377%
NC1(c2ccc(-c3nc4ccn5c(=O)[nH]nc5c4cc3-c3ccccc3)cc2)CCC1 + COc1ccc(COc2ccc(Cc3cnc(N)nc3N)cc2OC)cc1 [GW2580] (first compound 0.4 µM, partner dose 1 µM) | 84.3% | 48.1% | 108% | 92.1% | 138% | 81.9% | 68.9% | 86.3% | 71.3% | 70.1% | 76.8% | 182% | 97.1% | 210% | 85.5% | 80.4%
C[C@]1(O)C[C@@H](c2nc(-c3ccc4ccc(-c5ccccc5)nc4c3)c3c(N)nccn32)C1 + COc1cc2ncnc(Nc3ccc(Oc4ccccc4)cc3)c2cc1OC [SrcI1] (first compound 0.4 µM, partner dose 2 µM) | 83.9% | 19.7% | 88.3% | 90.8% | 111% | 104% | 42.4% | 116% | 77.8% | 176% | 96.6% | 114% | 154% | 120% | 137% | 48.7%
CCCCCCCCc1ccc(CCC(N)(CO)CO)cc1 [fingolimod] + O=C1NC(=O)/C(=C/c2ccc(-c3ccc(F)cc3O)o2)S1 [AS252424] (first compound 2 µM, partner dose 1 µM) | 113% | 14.9% | 356% | 82.3% | 57.6% | 106% | 39% | 99.1% | 97.3% | 147% | 61.1% | 55.3% | 136% | 104% | 80.7% | 34.5%
COc1ccc(C2=N[C@@H](c3ccc(Cl)cc3)[C@@H](c3ccc(Cl)cc3)N2C(=O)N2CCNC(=O)C2)c(OC(C)C)c1 [Nutlin-3] + O=c1cc(-c2cccc3c2Sc2ccccc2S3)oc(N2CCOCC2)c1 [KU55933] (first compound 0.1 µM, partner dose 1 µM) | 68.8% | 47.4% | 67.9% | 86.6% | 61.6% | 125% | 101% | 125% | 120% | 70.1% | 145% | 118% | 31.4% | 85.9% | 62% | 70%
Cn1sc(=O)n(Cc2ccccc2)c1=O + CCc1ccc(CCOc2ccc(CC3SC(=O)NC3=O)cc2)nc1 [pioglitazone] (first compound 0.4 µM, partner dose 2 µM) | 65.4% | 25.1% | 52.5% | 97.9% | 57.2% | 89.2% | 108% | 82.4% | 18.4% | 127% | 164% | 70.7% | 91.7% | 106% | 74% | 476%
NC(=O)c1ccc(N(C(N)=O)c2c(F)cccc2F)nc1-c1ccc(F)cc1F + c1cc(-c2cnn3cc(-c4ccc(OCCN5CCCCC5)cc4)cnc23)ccn1 [Dorsomorphin] (first compound 0.4 µM, partner dose 0.4 µM) | 70.7% | 28.2% | 37.7% | 33.5% | 98.9% | 119% | 40.5% | 96.7% | 89.3% | 133% | 103% | 70.2% | 48.6% | 28.9% | 66.7% | 247%
Cn1sc(=O)n(Cc2ccccc2)c1=O + COC(=O)c1sccc1S(=O)(=O)Nc1ccc(Nc2ccccc2)cc1OC [GSK0660] (first compound 0.4 µM, partner dose 1 µM) | 61.3% | 11.9% | 95.1% | 78.6% | 72.4% | 146% | 2400% | 86.4% | 50.4% | 204% | 98.3% | 246% | 192% | 99.6% | 44.4% | 144%
CC(=O)O[C@@]12CO[C@@H]1C[C@H](O)[C@@]1(C)C(=O)[C@H](O)C3=C(C)[C@@H](OC(=O)[C@H](O)[C@@H](NC(=O)OC(C)(C)C)c4ccccc4)C[C@@](O)([C@@H](OC(=O)c4ccccc4)[C@H]21)C3(C)C [Docetaxel] + O=C(O)C(=O)Nc1sc2c(c1C(=O)O)CCNC2 [TCS401] (first compound 0.0001 µM, partner dose 1.66667 µM) | 93.5% | 27.8% | 2610% | 156% | 509% | 113% | 146% | 233% | 777% | 632% | 441% | 448% | 147% | 168% | 95% | 143%

Reformatted as comma-separated lines: entries from further up.
Compound,cleaved PARP positive nuclei fraction (501Mel),cleaved PARP positive nuclei fraction (A101D),cleaved PARP positive nuclei fraction (A2058),cleaved PARP positive nuclei fraction (C32),cleaved PARP positive nuclei fraction (CBRC008),cleaved PARP positive nuclei fraction (CBRC014),cleaved PARP positive nuclei fraction (CBRC016),cleaved PARP positive nuclei fraction (CBRC017),cleaved PARP positive nuclei fraction (COLO792),cleaved PARP positive nuclei fraction (COLO800),cleaved PARP positive nuclei fraction (COLO829),cleaved PARP positive nuclei fraction (G361),cleaved PARP positive nuclei fraction (IPC-298),cleaved PARP positive nuclei fraction (IST-MEL1),cleaved PARP positive nuclei fraction (LB2518-MEL),cleaved PARP positive nuclei fraction (LOXIMVI)
"NC(=O)c1ccc(N(C(N)=O)c2c(F)cccc2F)nc1-c1ccc(F)cc1F + CCN(CC)CCCCNc1ncc2cc(-c3cc(OC)cc(OC)c3)c(NC(=O)NC(C)(C)C)nc2n1 [PD173074] (first compound 0.4 µM, partner dose 0.1 µM)",54.3%,11.4%,29.2%,115%,80.9%,82.3%,11.5%,162%,131%,75.8%,80.2%,80%,82.9%,77%,167%,160%
"C[C@]1(O)C[C@@H](c2nc(-c3ccc4ccc(-c5ccccc5)nc4c3)c3c(N)nccn32)C1 + c1cc(-c2cnn3cc(-c4ccc(OCCN5CCCCC5)cc4)cnc23)ccn1 [Dorsomorphin] (first compound 0.4 µM, partner dose 0.4 µM)",43.2%,18.7%,203%,27.6%,39.4%,104%,46.9%,102%,57.2%,33%,61.1%,74.2%,147%,122%,403%,287%

Reference: the supplement of paper PMC4604168 (melanoma cell lines)
